# Reference: the supplement of paper PMC10032668
# Protein sequences, listed by entry. Tags and fused reporters are not part of them.
# MORF4L1, Q9UBU8, UniProt Q9UBU8, whole entry: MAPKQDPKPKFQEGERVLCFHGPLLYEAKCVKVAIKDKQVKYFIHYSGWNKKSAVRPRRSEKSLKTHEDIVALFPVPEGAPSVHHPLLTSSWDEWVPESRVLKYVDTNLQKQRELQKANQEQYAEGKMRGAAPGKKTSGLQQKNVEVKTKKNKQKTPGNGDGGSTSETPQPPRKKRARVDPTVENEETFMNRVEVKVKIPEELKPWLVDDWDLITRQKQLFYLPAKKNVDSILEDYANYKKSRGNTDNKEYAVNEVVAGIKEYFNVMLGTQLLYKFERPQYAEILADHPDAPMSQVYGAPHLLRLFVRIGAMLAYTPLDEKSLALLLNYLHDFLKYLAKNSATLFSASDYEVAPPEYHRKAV
# MORF4L2, Q15014, UniProt Q15014, whole entry: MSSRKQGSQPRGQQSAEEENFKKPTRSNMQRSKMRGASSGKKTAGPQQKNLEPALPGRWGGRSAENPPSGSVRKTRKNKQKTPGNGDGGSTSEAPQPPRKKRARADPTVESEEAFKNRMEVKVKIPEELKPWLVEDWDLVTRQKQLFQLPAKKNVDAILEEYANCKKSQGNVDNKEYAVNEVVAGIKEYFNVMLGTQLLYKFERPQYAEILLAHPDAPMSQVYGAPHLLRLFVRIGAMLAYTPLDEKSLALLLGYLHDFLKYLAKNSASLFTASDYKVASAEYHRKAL
# MPG, P29372, UniProt P29372, whole entry: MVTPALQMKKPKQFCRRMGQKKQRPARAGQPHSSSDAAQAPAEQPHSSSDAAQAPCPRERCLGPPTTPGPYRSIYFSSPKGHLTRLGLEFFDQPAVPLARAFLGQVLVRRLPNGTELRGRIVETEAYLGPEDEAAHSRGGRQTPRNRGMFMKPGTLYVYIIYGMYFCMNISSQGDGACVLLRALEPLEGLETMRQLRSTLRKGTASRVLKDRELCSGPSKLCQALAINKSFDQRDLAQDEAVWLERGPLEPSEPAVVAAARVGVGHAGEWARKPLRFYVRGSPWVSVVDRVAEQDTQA
# PDLIM7, Q9NR12, UniProt Q9NR12, whole entry: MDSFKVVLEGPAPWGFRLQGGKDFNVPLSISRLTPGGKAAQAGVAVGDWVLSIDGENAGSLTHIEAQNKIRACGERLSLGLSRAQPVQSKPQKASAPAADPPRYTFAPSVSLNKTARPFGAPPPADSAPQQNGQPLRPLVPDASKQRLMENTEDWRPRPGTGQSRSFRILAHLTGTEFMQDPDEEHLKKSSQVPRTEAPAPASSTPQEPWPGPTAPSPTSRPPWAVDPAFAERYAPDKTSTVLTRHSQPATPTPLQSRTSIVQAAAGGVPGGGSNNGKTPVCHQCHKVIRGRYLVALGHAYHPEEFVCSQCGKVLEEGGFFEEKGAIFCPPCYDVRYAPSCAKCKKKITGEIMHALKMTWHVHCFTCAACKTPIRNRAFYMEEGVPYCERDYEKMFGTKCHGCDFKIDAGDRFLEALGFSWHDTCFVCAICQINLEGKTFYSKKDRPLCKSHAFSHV
# PIN1, Q13526, UniProt Q13526, whole entry: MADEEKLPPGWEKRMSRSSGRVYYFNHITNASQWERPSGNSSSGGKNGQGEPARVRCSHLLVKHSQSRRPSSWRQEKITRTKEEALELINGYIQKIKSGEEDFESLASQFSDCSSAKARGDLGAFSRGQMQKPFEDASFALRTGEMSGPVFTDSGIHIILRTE
# PIN4, Q9Y237, UniProt Q9Y237, whole entry: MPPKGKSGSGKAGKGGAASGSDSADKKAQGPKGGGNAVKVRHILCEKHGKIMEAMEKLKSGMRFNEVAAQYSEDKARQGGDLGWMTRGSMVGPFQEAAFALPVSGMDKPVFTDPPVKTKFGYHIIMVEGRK
# PLK1, P53350, UniProt P53350, whole entry: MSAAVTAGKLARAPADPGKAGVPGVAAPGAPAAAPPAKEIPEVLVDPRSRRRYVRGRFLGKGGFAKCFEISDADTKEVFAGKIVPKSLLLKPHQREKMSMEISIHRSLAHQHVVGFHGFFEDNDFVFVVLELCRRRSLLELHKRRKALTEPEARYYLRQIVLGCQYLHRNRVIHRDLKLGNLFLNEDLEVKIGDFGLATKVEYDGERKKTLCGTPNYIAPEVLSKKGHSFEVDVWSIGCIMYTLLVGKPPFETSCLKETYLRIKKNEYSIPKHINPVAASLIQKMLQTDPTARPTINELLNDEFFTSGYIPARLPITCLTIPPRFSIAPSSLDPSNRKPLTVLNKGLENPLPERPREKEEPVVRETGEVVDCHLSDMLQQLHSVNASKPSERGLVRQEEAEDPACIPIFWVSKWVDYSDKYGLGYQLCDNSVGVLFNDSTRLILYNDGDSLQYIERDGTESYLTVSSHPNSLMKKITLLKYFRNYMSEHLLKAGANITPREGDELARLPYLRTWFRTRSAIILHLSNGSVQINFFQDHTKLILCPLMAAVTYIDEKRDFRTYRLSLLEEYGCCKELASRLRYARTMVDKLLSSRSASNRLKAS
# TPX2, Q9ULW0, UniProt Q9ULW0, whole entry: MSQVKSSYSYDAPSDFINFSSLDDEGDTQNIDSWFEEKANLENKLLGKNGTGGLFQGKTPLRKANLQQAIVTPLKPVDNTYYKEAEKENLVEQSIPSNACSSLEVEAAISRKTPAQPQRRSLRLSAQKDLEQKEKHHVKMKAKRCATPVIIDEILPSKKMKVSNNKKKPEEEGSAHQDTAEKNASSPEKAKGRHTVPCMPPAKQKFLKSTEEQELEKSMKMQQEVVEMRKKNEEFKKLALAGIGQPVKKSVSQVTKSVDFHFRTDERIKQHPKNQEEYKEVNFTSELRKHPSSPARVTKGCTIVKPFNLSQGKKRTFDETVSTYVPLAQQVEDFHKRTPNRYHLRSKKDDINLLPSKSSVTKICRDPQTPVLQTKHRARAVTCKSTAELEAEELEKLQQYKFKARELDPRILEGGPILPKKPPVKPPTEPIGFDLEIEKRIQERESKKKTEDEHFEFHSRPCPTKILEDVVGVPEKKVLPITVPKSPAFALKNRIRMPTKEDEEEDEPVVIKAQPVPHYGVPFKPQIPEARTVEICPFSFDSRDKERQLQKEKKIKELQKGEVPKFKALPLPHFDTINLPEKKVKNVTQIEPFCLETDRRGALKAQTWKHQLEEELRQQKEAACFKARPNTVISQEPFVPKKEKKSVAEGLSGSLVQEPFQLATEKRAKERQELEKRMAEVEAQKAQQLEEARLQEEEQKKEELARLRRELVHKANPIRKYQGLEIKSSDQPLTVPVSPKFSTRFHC
# UFM1, P61960, UniProt P61960, whole entry: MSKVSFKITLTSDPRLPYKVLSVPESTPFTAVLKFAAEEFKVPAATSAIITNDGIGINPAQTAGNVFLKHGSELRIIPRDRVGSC
# The list shows a part of the results. Only hits are listed; about a third recur on repeated control peptides.
# B1: RCBTB2 (peptide)
# chain: MTEYWVPEI
# Key:
# Assay in all cases: PRISMA enrichment of interactor (LFQ) in peptide spot vs all other peptide spots (log2 fold change); higher = stronger / more specific binding of the interactor to the peptide
# MORF4L1, Q9UBU8 = molecular target: MORF4L1, Q9UBU8
# Procedure: (§1)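 PRISMA: 221 full-length sORF-encoded peptides (3-15 aa), plus SOS1/GLUT1 control peptides, were spot-synthesized on cellulose membranes in triplicate. Membranes were incubated with HEK293T lysate, and bound proteins were identified by LC-MS/MS with LFQ. Enrichment is the log2 fold change versus all other peptide spots; only significant interactors are listed (cutoff c=6, x0=2.8).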
# MORF4L2, Q15014 = molecular target: MORF4L2, Q15014
# Procedure: as §1
# MPG, P29372 = molecular target: MPG, P29372
# Procedure: as §1
# MRM2, Q9UI43 = molecular target: MRM2, Q9UI43
# Procedure: as §1
# MRNIP, Q6NTE8 = molecular target: MRNIP, Q6NTE8
# Procedure: as §1
# MRRF, Q96E11 = molecular target: MRRF, Q96E11
# Procedure: as §1
# MTHFD2, P13995 = molecular target: MTHFD2, P13995
# Procedure: as §1
# NIFK, Q9BYG3 = molecular target: NIFK, Q9BYG3
# Procedure: as §1
# NME4, O00746 = molecular target: NME4, O00746
# Procedure: as §1
# NOL7, Q9UMY1 = molecular target: NOL7, Q9UMY1
# Procedure: as §1
# [1] = substrate: NONO, Q15233
# Procedure: as §1
# [2] = substrate: NOSIP, Q9Y314
# Procedure: as §1
# NSUN4, Q96CB9 = molecular target: NSUN4, Q96CB9
# Procedure: as §1
# NTHL1, P78549 = molecular target: NTHL1, P78549
# Procedure: as §1
# NUDT16, Q96DE0 = molecular target: NUDT16, Q96DE0
# Procedure: as §1
# NUDT16L1, Q9BRJ7 = molecular target: NUDT16L1, Q9BRJ7
# Procedure: as §1
# NUFIP2, Q7Z417 = molecular target: NUFIP2, Q7Z417
# Procedure: as §1
# NUSAP1, Q9BXS6 = molecular target: NUSAP1, Q9BXS6
# Procedure: as §1
# PAK4, O96013 = molecular target: PAK4, O96013
# Procedure: as §1
# PARP2, Q9UGN5 = molecular target: PARP2, Q9UGN5
# Procedure: as §1
# PCLAF, Q15004 = molecular target: PCLAF, Q15004
# Procedure: as §1
# PDF, Q9HBH1 = molecular target: PDF, Q9HBH1
# Procedure: as §1
# PDLIM7, Q9NR12 = molecular target: PDLIM7, Q9NR12
# Procedure: as §1
# PIN1, Q13526 = molecular target: PIN1, Q13526
# Procedure: as §1
# PIN4, Q9Y237 = molecular target: PIN4, Q9Y237
# Procedure: as §1
# PINX1, Q96BK5 = molecular target: PINX1, Q96BK5
# Procedure: as §1
# PLK1, P53350 = molecular target: PLK1, P53350
# Procedure: as §1
# POLDIP3, Q9BY77 = molecular target: POLDIP3, Q9BY77
# Procedure: as §1
# POLR1D = molecular target: POLR1D
# Procedure: as §1
# [3] = substrate: PPIF, P30405
# Procedure: as §1
# PPIL2, Q13356 = molecular target: PPIL2, Q13356
# Procedure: as §1
# PRRC2A, P48634 = molecular target: PRRC2A, P48634
# Procedure: as §1
# PSPC1, Q8WXF1 = molecular target: PSPC1, Q8WXF1
# Procedure: as §1
# PSRC1, Q6PGN9 = molecular target: PSRC1, Q6PGN9
# Procedure: as §1
# PYCR1, P32322 = molecular target: PYCR1, P32322
# Procedure: as §1
# PYCR2, Q96C36 = molecular target: PYCR2, Q96C36
# Procedure: as §1
# RBIS, Q8N0T1 = molecular target: RBIS, Q8N0T1
# Procedure: as §1
# RBM14, Q96PK6 = molecular target: RBM14, Q96PK6
# Procedure: as §1
# RBM27, Q9P2N5 = molecular target: RBM27, Q9P2N5
# Procedure: as §1
# RBM33, Q96EV2 = molecular target: RBM33, Q96EV2
# Procedure: as §1
# RBMX, P38159 = molecular target: RBMX, P38159
# Procedure: as §1
# RPUSD3, Q6P087 = molecular target: RPUSD3, Q6P087
# Procedure: as §1
# SAFB, Q15424 = molecular target: SAFB, Q15424
# Procedure: as §1
# SAFB2, Q14151 = molecular target: SAFB2, Q14151
# Procedure: as §1
# SEH1L, Q96EE3 = molecular target: SEH1L, Q96EE3
# Procedure: as §1
# SERF2, P84101 = molecular target: SERF2, P84101
# Procedure: as §1
# SF1, Q15637 = molecular target: SF1, Q15637
# Procedure: as §1
# SFPQ, P23246 = molecular target: SFPQ, P23246
# Procedure: as §1
# SLTM, Q9NWH9 = molecular target: SLTM, Q9NWH9
# Procedure: as §1
# SMNDC1, O75940 = molecular target: SMNDC1, O75940
# Procedure: as §1
# SNW1, Q13573 = molecular target: SNW1, Q13573
# Procedure: as §1
# SSBP1, Q04837 = molecular target: SSBP1, Q04837
# Procedure: as §1
# THYN1, Q9P016 = molecular target: THYN1, Q9P016
# Procedure: as §1
# TIA1, P31483 = molecular target: TIA1, P31483
# Procedure: as §1
# TOMM34, Q15785 = molecular target: TOMM34, Q15785
# Procedure: as §1
# TPX2, Q9ULW0 = molecular target: TPX2, Q9ULW0
# Procedure: as §1
# TRPT1, Q86TN4 = molecular target: TRPT1, Q86TN4
# Procedure: as §1
# UFM1, P61960 = molecular target: UFM1, P61960
# Procedure: as §1
# UTP11, Q9Y3A2 = molecular target: UTP11, Q9Y3A2
# Procedure: as §1
# UTP15, Q8TED0 = molecular target: UTP15, Q8TED0
# Procedure: as §1
# VRK1, Q99986 = molecular target: VRK1, Q99986
# Procedure: as §1
# VRK2, Q86Y07 = molecular target: VRK2, Q86Y07
# Procedure: as §1
# YRDC, Q86U90 = molecular target: YRDC, Q86U90
# Procedure: as §1
# ZC2HC1A, Q96GY0 = molecular target: ZC2HC1A, Q96GY0
# Procedure: as §1
# ZC3HAV1L, Q96H79 = molecular target: ZC3HAV1L, Q96H79
# Procedure: as §1
# ZNF207, O43670 = molecular target: ZNF207, O43670
# Procedure: as §1
# ZNF512, Q96ME7 = molecular target: ZNF512, Q96ME7
# Procedure: as §1
# ZNF593, O00488 = molecular target: ZNF593, O00488
# Procedure: as §1
# ZNF638, Q14966 = molecular target: ZNF638, Q14966
# Procedure: as §1
# ZNF706, Q9Y5V0 = molecular target: ZNF706, Q9Y5V0
# Procedure: as §1
# ZNF768, Q9H5H4 = molecular target: ZNF768, Q9H5H4
# Procedure: as §1
binder,measurement,setting,value
B1,PRISMA enrichment of interactor (log2),"MORF4L1, Q9UBU8",6.5
same,PRISMA enrichment of interactor (log2),"MORF4L2, Q15014",8.26
same,PRISMA enrichment of interactor (log2),"MPG, P29372",7.8
same,PRISMA enrichment of interactor (log2),"MRM2, Q9UI43",4.83
same,PRISMA enrichment of interactor (log2),"MRNIP, Q6NTE8",3.63
same,PRISMA enrichment of interactor (log2),"MRRF, Q96E11",5.15
same,PRISMA enrichment of interactor (log2),"MTHFD2, P13995",4.92
same,PRISMA enrichment of interactor (log2),"NIFK, Q9BYG3",6.8
same,PRISMA enrichment of interactor (log2),"NME4, O00746",7.21
same,PRISMA enrichment of interactor (log2),"NOL7, Q9UMY1",4.09
same,PRISMA enrichment of interactor (log2),[1],6.95
same,PRISMA enrichment of interactor (log2),[2],6.49
same,PRISMA enrichment of interactor (log2),"NSUN4, Q96CB9",5.29
same,PRISMA enrichment of interactor (log2),"NTHL1, P78549",5.45
same,PRISMA enrichment of interactor (log2),"NUDT16, Q96DE0",4.05
same,PRISMA enrichment of interactor (log2),"NUDT16L1, Q9BRJ7",5.7
same,PRISMA enrichment of interactor (log2),"NUFIP2, Q7Z417",4.9
same,PRISMA enrichment of interactor (log2),"NUSAP1, Q9BXS6",6.7
same,PRISMA enrichment of interactor (log2),"PAK4, O96013",7.47
same,PRISMA enrichment of interactor (log2),"PARP2, Q9UGN5",4.4
same,PRISMA enrichment of interactor (log2),"PCLAF, Q15004",5.82
same,PRISMA enrichment of interactor (log2),"PDF, Q9HBH1",5.16
same,PRISMA enrichment of interactor (log2),"PDLIM7, Q9NR12",4.81
same,PRISMA enrichment of interactor (log2),"PIN1, Q13526",5.32
same,PRISMA enrichment of interactor (log2),"PIN4, Q9Y237",7.31
same,PRISMA enrichment of interactor (log2),"PINX1, Q96BK5",6.33
same,PRISMA enrichment of interactor (log2),"PLK1, P53350",7
same,PRISMA enrichment of interactor (log2),"POLDIP3, Q9BY77",5.94
same,PRISMA enrichment of interactor (log2),POLR1D,3.73
same,PRISMA enrichment of interactor (log2),[3],7.5
same,PRISMA enrichment of interactor (log2),"PPIL2, Q13356",7.43
same,PRISMA enrichment of interactor (log2),"PRRC2A, P48634",6.86
same,PRISMA enrichment of interactor (log2),"PSPC1, Q8WXF1",8.52
same,PRISMA enrichment of interactor (log2),"PSRC1, Q6PGN9",6.21
same,PRISMA enrichment of interactor (log2),"PYCR1, P32322",5.04
same,PRISMA enrichment of interactor (log2),"PYCR2, Q96C36",5.53
same,PRISMA enrichment of interactor (log2),"RBIS, Q8N0T1",4.75
same,PRISMA enrichment of interactor (log2),"RBM14, Q96PK6",5.82
same,PRISMA enrichment of interactor (log2),"RBM27, Q9P2N5",5.46
same,PRISMA enrichment of interactor (log2),"RBM33, Q96EV2",7.7
same,PRISMA enrichment of interactor (log2),"RBMX, P38159",5.22
same,PRISMA enrichment of interactor (log2),"RPUSD3, Q6P087",5.97
same,PRISMA enrichment of interactor (log2),"SAFB, Q15424",5.99
same,PRISMA enrichment of interactor (log2),"SAFB2, Q14151",5.11
same,PRISMA enrichment of interactor (log2),"SEH1L, Q96EE3",4.66
same,PRISMA enrichment of interactor (log2),"SERF2, P84101",6.99
same,PRISMA enrichment of interactor (log2),"SF1, Q15637",5.36
same,PRISMA enrichment of interactor (log2),"SFPQ, P23246",6.66
same,PRISMA enrichment of interactor (log2),"SLTM, Q9NWH9",5.59
same,PRISMA enrichment of interactor (log2),"SMNDC1, O75940",4.34
same,PRISMA enrichment of interactor (log2),"SNW1, Q13573",5.86
same,PRISMA enrichment of interactor (log2),"SSBP1, Q04837",5.73
same,PRISMA enrichment of interactor (log2),"THYN1, Q9P016",5.07
same,PRISMA enrichment of interactor (log2),"TIA1, P31483",5.14
same,PRISMA enrichment of interactor (log2),"TOMM34, Q15785",6.48
same,PRISMA enrichment of interactor (log2),"TPX2, Q9ULW0",7.22
same,PRISMA enrichment of interactor (log2),"TRPT1, Q86TN4",4.89
same,PRISMA enrichment of interactor (log2),"UFM1, P61960",4.47
same,PRISMA enrichment of interactor (log2),"UTP11, Q9Y3A2",4.97
same,PRISMA enrichment of interactor (log2),"UTP15, Q8TED0",5.34
same,PRISMA enrichment of interactor (log2),"VRK1, Q99986",4.3
same,PRISMA enrichment of interactor (log2),"VRK2, Q86Y07",3.86
same,PRISMA enrichment of interactor (log2),"YRDC, Q86U90",4.27
same,PRISMA enrichment of interactor (log2),"ZC2HC1A, Q96GY0",5.51
same,PRISMA enrichment of interactor (log2),"ZC3HAV1L, Q96H79",4.08
same,PRISMA enrichment of interactor (log2),"ZNF207, O43670",4.37
same,PRISMA enrichment of interactor (log2),"ZNF512, Q96ME7",5.71
same,PRISMA enrichment of interactor (log2),"ZNF593, O00488",4.2
same,PRISMA enrichment of interactor (log2),"ZNF638, Q14966",6.5
same,PRISMA enrichment of interactor (log2),"ZNF706, Q9Y5V0",4.18
same,PRISMA enrichment of interactor (log2),"ZNF768, Q9H5H4",6.49

# Nothing new here: entries from further up.
binder,measurement,setting,value
B1,PRISMA enrichment of interactor (log2),"SFPQ, P23246",6.66
same,PRISMA enrichment of interactor (log2),"SLTM, Q9NWH9",5.59
same,PRISMA enrichment of interactor (log2),"SMNDC1, O75940",4.34
same,PRISMA enrichment of interactor (log2),"SNW1, Q13573",5.86
same,PRISMA enrichment of interactor (log2),"SSBP1, Q04837",5.73
same,PRISMA enrichment of interactor (log2),"THYN1, Q9P016",5.07
same,PRISMA enrichment of interactor (log2),"TIA1, P31483",5.14
same,PRISMA enrichment of interactor (log2),"TOMM34, Q15785",6.48
same,PRISMA enrichment of interactor (log2),"TPX2, Q9ULW0",7.22
same,PRISMA enrichment of interactor (log2),"TRPT1, Q86TN4",4.89
same,PRISMA enrichment of interactor (log2),"UFM1, P61960",4.47
same,PRISMA enrichment of interactor (log2),"UTP11, Q9Y3A2",4.97
same,PRISMA enrichment of interactor (log2),"UTP15, Q8TED0",5.34
